For eleven substances, binding results are on record in paper PMC2712759, “Hsp70 Chaperones and Type I PRMTs Are Sequestered at Intranuclear Inclusions Caused by Polyalanine Expansions in PABPN1” (PLoS ONE, 2009).

Chains of the proteins cited; added tags and fusions are not shown.
UniProt Q7SIG6: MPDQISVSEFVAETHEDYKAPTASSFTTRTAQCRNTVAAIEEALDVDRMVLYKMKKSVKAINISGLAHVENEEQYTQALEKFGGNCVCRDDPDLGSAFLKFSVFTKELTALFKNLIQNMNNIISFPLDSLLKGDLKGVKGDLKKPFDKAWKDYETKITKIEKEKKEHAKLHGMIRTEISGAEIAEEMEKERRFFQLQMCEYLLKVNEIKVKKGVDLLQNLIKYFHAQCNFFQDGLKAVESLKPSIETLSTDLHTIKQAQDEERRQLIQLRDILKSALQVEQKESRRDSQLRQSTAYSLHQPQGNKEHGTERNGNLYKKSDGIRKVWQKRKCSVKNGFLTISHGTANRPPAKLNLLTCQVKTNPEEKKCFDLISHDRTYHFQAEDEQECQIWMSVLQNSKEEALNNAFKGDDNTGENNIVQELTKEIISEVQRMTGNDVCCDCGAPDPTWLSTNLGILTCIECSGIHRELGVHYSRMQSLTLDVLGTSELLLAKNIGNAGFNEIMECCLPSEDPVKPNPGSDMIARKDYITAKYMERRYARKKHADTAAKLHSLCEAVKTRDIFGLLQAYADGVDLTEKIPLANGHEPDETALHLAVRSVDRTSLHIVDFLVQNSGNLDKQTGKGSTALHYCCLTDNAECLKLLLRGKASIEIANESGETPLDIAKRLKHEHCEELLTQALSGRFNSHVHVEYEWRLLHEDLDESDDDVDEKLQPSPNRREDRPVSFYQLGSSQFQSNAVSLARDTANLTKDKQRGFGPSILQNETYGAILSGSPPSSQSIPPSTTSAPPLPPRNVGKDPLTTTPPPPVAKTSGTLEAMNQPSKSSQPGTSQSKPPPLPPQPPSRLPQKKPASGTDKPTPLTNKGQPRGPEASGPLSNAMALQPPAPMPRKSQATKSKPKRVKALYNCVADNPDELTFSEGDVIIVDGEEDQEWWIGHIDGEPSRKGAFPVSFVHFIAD
UniProt Q8R050: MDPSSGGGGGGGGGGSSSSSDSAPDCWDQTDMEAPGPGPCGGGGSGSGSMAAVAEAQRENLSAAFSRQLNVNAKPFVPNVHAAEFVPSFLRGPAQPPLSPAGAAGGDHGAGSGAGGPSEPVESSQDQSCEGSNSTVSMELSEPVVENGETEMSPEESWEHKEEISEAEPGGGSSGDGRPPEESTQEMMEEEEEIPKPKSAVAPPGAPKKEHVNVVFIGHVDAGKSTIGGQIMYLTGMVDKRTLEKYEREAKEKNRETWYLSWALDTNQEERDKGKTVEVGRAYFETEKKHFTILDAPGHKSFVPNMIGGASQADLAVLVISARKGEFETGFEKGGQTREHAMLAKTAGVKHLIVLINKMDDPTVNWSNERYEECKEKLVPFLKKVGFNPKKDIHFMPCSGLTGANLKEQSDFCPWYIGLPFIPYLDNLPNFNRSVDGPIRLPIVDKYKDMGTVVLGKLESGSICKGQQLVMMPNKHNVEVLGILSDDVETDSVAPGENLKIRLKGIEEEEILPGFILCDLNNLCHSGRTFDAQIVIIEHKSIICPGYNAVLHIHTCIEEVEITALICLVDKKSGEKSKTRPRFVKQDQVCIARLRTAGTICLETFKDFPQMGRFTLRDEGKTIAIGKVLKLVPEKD
UniProt P17879: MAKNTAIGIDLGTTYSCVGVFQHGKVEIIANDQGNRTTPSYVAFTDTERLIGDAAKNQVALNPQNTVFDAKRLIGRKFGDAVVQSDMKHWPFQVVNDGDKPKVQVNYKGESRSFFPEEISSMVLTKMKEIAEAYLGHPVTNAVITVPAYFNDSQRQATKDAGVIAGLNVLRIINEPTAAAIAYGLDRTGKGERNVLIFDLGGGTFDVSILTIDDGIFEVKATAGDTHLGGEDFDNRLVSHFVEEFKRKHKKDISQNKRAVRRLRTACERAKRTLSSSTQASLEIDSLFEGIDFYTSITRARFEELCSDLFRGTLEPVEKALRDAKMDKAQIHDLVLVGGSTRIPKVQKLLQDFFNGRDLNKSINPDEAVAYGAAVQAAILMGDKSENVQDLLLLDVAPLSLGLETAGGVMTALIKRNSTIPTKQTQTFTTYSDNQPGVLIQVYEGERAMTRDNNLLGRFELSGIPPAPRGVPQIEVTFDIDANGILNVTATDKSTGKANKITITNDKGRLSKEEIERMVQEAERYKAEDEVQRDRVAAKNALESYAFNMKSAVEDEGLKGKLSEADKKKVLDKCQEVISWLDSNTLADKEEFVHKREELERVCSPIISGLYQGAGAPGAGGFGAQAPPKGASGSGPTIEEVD
UniProt P16627: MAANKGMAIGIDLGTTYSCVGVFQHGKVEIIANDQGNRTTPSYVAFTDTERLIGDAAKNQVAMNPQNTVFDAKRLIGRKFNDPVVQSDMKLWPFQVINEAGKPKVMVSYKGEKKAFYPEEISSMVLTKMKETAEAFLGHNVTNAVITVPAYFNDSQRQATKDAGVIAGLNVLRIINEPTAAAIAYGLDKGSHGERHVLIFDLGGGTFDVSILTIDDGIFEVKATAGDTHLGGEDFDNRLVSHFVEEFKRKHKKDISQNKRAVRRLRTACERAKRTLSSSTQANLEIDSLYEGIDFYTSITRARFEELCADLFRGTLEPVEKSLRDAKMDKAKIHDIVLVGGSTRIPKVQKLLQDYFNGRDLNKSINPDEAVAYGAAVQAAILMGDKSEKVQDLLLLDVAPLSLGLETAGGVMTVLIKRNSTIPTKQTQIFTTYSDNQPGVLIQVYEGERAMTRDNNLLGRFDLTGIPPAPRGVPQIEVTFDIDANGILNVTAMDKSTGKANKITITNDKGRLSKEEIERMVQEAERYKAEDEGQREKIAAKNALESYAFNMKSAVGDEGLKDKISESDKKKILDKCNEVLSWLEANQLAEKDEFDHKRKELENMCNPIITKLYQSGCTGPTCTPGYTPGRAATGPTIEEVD
UniProt Q80XB4: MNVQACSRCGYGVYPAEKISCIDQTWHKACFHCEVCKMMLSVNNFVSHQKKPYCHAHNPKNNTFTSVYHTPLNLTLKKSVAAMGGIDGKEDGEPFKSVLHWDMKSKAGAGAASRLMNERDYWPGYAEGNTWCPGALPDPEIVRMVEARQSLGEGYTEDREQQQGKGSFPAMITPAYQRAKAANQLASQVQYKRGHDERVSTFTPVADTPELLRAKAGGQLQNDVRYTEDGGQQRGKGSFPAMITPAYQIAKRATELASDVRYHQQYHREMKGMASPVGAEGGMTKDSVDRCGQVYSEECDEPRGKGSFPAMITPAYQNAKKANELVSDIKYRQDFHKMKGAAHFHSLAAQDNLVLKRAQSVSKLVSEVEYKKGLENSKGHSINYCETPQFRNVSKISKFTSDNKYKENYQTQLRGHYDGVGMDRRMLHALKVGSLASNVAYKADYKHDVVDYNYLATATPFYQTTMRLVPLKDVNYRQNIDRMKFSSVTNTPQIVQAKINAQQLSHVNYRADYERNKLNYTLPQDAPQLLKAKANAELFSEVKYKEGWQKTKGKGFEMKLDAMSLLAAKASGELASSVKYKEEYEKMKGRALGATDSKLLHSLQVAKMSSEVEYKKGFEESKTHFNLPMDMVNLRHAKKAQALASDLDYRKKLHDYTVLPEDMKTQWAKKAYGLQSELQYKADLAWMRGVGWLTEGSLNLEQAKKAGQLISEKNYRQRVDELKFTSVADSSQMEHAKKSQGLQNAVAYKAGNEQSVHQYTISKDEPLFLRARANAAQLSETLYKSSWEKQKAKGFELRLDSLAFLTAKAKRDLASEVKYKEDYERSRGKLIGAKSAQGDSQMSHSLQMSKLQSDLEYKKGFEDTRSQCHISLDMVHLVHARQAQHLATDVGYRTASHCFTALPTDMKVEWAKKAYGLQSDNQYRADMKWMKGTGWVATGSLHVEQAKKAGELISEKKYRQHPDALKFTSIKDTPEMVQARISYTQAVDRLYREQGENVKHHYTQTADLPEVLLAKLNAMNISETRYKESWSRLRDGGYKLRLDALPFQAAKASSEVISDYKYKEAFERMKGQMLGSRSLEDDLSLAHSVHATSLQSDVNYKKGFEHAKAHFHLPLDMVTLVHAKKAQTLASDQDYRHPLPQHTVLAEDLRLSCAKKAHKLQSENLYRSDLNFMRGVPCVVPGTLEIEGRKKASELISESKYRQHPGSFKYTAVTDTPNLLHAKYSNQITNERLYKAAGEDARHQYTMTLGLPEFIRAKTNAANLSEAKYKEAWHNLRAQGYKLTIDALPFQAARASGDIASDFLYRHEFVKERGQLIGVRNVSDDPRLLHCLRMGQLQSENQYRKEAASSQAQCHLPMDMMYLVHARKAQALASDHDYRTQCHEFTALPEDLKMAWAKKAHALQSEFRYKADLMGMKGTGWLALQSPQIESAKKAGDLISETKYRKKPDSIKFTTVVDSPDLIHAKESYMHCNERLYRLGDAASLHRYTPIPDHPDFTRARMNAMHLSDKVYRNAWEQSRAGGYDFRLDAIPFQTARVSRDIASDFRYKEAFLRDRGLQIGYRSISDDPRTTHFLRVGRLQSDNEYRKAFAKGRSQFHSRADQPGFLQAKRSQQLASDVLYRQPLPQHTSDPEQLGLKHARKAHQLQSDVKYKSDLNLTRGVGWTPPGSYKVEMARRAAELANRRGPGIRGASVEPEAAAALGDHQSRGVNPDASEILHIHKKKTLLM
UniProt Q9JIF0: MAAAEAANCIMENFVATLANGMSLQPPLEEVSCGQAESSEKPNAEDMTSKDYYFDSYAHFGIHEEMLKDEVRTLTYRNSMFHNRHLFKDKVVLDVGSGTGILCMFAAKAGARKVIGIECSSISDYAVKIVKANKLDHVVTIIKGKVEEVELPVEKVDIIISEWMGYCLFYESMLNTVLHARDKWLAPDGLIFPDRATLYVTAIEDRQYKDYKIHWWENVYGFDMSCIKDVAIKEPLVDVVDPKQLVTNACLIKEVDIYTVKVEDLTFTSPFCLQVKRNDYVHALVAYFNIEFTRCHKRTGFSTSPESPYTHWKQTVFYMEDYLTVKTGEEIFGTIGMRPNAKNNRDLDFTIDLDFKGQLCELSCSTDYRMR
UniProt Q922H1: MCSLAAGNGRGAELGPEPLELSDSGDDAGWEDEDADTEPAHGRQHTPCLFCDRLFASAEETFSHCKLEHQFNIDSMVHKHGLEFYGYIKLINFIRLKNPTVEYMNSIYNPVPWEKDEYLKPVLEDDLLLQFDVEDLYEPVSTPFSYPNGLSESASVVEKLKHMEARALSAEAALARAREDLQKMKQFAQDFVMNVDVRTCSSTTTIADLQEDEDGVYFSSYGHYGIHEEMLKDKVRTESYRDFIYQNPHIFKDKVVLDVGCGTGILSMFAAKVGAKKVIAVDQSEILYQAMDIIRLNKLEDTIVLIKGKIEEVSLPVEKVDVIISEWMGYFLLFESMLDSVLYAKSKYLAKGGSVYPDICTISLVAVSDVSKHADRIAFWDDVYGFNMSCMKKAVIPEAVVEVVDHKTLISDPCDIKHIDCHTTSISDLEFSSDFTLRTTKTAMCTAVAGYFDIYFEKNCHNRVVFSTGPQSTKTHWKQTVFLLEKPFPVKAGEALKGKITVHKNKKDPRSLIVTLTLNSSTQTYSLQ
UniProt Q8VEK3: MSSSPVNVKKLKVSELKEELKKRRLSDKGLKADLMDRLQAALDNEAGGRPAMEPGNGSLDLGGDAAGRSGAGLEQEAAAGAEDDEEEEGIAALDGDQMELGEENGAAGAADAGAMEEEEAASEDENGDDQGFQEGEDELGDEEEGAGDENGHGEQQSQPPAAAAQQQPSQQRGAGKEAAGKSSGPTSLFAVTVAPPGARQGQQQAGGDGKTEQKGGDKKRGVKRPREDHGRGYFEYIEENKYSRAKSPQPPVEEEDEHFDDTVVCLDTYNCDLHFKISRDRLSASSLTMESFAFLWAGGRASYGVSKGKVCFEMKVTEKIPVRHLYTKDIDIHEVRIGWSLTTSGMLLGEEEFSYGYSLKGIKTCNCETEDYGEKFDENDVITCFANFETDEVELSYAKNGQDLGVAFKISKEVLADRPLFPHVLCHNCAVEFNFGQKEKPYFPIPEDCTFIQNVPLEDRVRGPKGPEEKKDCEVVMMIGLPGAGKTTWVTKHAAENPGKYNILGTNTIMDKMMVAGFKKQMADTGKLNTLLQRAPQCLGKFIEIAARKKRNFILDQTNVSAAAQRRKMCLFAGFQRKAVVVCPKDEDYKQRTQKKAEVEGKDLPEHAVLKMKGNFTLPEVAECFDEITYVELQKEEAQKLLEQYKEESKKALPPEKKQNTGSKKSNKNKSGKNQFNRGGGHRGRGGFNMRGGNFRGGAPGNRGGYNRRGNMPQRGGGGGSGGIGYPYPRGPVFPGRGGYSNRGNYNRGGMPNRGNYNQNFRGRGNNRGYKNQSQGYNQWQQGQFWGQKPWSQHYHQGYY

No constants are given. Whether binding was seen depends on the method and setting. Binding seen in cells or lysates may run through a third protein. These calls come from enrichment with a bait or labelling near it, and not all partners need be listed. Sequences can lack the tags named with a protein.

Assay [1] addresses T1, expanded human PABPN1, tract of 17 alanine residues, His-tagged, biotinylated (human) (UniProt Q86U42).
T1 sequence (chain, biotin (EZ-Link PEO-Maleimide Activated Biotin)): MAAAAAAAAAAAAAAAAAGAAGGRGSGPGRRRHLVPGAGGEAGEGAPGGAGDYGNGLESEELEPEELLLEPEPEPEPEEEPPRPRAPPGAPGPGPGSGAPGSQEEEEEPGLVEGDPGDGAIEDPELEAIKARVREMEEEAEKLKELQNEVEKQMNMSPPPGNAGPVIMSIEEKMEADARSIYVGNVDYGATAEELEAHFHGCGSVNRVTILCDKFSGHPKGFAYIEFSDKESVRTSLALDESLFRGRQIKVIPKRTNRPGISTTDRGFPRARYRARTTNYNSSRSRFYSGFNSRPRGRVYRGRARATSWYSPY
In words: affinity purification with mass spectrometry; biotinylated His-PABPN1 (2 µg) on streptavidin-agarose beads, incubated with RNase A-treated extracts of undifferentiated (myoblasts) and differentiated (myotubes) C2 cells, 4 h at 4°C, 20 mM Tris pH 8.0, 200 mM KCl, 10% glycerol; bands excised from SDS-PAGE, MALDI-MS; only the target purified.

Assay [2] has as its target T2, normal human PABPN1 (poly(A)-binding protein nuclear 1), homopolymer of 10 alanine residues, His-tagged, biotinylated (human) (UniProt Q86U42).
T2 sequence (chain, biotin (EZ-Link PEO-Maleimide Activated Biotin)): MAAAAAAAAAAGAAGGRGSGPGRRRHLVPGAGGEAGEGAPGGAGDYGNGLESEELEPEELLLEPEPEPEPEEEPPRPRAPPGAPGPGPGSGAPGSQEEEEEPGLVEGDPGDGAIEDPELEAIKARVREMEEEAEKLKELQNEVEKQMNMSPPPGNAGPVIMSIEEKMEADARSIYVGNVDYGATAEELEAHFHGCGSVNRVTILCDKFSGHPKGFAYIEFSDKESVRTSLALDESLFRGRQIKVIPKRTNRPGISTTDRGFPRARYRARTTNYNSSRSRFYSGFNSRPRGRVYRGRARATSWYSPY
Described as above.

For the substance “CREB-binding protein (from UniProt P45481 1-2441)”, the binding entry in assay [1] and in assay [2] was “binds” each time.
As to DDEF2 (from UniProt Q7SIG6 1-958), the binding entry in assay [1] and in assay [2] was “binds” in each case.
Gspt1 (from UniProt Q8R050 1-636): the binding result in assay [1] and in assay [2] was “binds” in each case.
With HSP70 1A (from UniProt Q61696 1-641), the binding entry in assay [1] and in assay [2] was “binds” each time.
For the substance HSP70 1B (from UniProt P17879 1-642), the binding entry in assay [1] and in assay [2] was “binds” each time.
Turning to HSP70 1L (from UniProt P16627 1-641), the binding entry in assay [1] and in assay [2] was “binds” throughout.
IMPORTIN 7 (from UniProt Q9EPL8 1-1038): the binding entry in assay [1] and in assay [2] was “binds” each time.
As to N-RAP (from UniProt Q80XB4 1-1728), the binding result in assay [1] and in assay [2] was “binds” throughout.
As to “PRMT1 (protein arginine methyl transferase 1) (from UniProt Q9JIF0 1-371) (enzyme)”, the binding result in assay [1] and in assay [2] was “binds” in each case.
“PRMT3 (protein arginine methyl transferase 3) (from UniProt Q922H1 1-528) (enzyme)”: the binding entry in assay [1] and in assay [2] was “binds” throughout.
For the substance hnRNP U (from UniProt Q8VEK3 1-800), the binding entry in assay [1] and in assay [2] was “binds” in each case.
